Results are given in words; binding and its absence hold for the method and conditions named. Binding seen in cells or lysates may run through a third protein. Some binding calls cover weakened binding; strength is not graded here.
Target: Bcl-2 (human (endogenous in primary endometrial stromal cells)) (UniProt P10415)
Experiment: co-IP; lysates of ESCs (control or hCG-treated) in IP lysis buffer (25 mM Tris-HCl, 150 mM NaCl, 1 mM EDTA, 1% NP-40, 1% protease inhibitor); precipitated with anti-Bcl-2 antibody or control IgG for 1 h at 4 °C on Protein A/G PLUS-Agarose; western blot for Bcl-2 or Beclin1

By UniProt entry, the sequences of proteins in these tests, tags left out.
UniProt P10415: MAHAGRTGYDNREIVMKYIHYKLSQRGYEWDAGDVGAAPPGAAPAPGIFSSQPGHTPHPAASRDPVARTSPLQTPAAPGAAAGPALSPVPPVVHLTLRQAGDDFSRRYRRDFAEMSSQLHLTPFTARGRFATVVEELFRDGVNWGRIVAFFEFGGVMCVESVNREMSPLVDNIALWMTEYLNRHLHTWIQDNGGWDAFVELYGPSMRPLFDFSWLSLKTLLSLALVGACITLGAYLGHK
UniProt Q14457: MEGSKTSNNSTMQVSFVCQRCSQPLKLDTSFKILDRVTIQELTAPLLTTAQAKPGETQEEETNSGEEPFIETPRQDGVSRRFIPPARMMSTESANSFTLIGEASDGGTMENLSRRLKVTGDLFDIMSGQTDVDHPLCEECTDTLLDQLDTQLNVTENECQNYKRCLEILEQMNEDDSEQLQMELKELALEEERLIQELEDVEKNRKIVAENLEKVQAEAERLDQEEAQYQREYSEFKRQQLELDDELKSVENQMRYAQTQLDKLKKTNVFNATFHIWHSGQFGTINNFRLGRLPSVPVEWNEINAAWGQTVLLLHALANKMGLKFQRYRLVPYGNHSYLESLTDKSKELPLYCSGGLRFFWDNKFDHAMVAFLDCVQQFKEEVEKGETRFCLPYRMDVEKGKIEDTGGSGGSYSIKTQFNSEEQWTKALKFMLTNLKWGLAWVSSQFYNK

- binding: binds
Substance: Beclin1 (from UniProt Q14457 1-450)

Reference: PMC10993617
